In this experiment the target is T1, human receptor tyrosine kinase FLT3 (human) (UniProt P36888).
T1 sequence: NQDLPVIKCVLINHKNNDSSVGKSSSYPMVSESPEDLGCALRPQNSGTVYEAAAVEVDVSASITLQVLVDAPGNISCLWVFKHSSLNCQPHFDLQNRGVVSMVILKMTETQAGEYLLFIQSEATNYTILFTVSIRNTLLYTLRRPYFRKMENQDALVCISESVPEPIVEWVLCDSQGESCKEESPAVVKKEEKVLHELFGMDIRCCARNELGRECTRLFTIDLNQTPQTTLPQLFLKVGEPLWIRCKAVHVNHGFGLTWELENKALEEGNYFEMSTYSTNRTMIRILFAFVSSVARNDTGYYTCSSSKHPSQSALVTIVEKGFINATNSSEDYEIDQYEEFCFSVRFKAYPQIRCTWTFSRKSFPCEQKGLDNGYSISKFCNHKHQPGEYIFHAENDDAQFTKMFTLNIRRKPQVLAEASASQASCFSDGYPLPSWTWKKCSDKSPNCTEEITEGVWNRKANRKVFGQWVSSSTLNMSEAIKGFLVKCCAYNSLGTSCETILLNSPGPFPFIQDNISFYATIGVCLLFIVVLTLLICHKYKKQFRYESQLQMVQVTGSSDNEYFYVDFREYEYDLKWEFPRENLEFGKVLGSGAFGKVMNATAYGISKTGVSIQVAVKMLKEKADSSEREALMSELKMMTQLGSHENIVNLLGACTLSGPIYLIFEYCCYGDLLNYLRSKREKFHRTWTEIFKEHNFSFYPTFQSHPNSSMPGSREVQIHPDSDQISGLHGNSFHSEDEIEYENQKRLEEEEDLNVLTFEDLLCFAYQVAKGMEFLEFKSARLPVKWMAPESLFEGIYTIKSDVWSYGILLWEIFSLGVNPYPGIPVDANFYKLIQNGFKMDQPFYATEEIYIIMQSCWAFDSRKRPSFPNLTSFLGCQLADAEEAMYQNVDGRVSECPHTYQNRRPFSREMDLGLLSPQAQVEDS
In words: competition, flow cytometry on NALM16 cells; rFLT3L varied, antibody (competitor 4G8SDIEM or BV10SDIEM) at 1 µg/ml. For orientation: In flow cytometry, cells or beads pass a laser one at a time.

The chains behind the UniProt entries cited, without tags or fusion partners. Residues count along the entry.
UniProt P49771, residues 27-181: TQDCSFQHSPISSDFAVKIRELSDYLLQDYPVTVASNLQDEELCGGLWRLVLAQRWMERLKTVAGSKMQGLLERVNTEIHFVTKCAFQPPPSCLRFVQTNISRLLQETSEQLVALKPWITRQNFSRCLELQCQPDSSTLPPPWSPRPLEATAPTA

These are yes or no findings as the source states them, for the method shown. Some entries that bind do so weakly or less than the wild type.

For the substance “recombinant FLT3 ligand (from UniProt P49771 27-181)”, the binding result is “binds”.

Values taken from US20120328612A1.
